Results from paper doi:10.1101/192500 (bioRxiv, 2018).
Results are given in words; binding and its absence hold for the method and conditions named. In cells and extracts the contact can be indirect. Some binding calls cover weakened binding; strength is not graded here. Where a sequence is shown, tags or fusion partners need not be part of it.

Columns and labels:
Assay in all cases: pull-down
[1] = target: T1, MlaA 3G3P mutant (G^141VGYG→P^141VPYP)-His (E. coli) (UniProt P76506)
T1 sequence: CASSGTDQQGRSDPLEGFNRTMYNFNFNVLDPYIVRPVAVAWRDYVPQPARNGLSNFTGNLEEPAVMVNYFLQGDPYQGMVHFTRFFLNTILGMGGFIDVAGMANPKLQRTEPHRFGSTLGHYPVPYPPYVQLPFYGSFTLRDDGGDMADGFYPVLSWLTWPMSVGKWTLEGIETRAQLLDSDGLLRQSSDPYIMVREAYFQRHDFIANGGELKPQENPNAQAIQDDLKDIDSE

[2] = target: T2, MlaA-His (wild type, from pET23/42) (E. coli) (UniProt P76506)
T2 sequence: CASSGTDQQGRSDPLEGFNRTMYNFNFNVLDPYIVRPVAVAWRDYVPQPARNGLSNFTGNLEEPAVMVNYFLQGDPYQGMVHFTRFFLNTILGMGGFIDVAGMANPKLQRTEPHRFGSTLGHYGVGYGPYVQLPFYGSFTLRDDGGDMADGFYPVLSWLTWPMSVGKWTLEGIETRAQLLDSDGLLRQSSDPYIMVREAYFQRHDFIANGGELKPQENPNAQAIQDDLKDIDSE

[3] = target: T3, MlaA 3G3P/3D3R combination mutant-His (E. coli) (UniProt P76506)
T3 sequence: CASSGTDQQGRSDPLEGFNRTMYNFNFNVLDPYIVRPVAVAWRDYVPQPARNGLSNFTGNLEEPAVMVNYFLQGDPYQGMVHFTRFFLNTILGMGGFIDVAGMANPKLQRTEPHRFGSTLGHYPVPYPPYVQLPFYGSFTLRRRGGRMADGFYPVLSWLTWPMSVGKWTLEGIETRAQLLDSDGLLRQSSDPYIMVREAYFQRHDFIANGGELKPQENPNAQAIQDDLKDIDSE

[4] = target: T4, MlaA_(3D3R)-His (E. coli) (UniProt P76506)
T4 sequence: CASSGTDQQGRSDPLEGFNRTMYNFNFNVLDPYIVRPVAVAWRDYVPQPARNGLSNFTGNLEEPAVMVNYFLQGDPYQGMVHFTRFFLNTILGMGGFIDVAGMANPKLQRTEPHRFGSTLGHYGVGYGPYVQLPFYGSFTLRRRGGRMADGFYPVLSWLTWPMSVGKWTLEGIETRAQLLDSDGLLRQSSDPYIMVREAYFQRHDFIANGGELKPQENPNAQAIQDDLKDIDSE

[5] = target: T5, MlaA L2 mutant (F^152YGSF→5A)-His (E. coli) (UniProt P76506)
T5 sequence: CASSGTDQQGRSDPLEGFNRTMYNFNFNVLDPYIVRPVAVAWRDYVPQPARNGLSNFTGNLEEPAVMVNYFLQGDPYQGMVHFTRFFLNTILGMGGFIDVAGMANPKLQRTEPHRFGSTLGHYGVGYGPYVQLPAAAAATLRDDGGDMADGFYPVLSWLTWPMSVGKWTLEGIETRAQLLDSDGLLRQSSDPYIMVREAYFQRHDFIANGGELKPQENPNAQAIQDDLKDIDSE

[6] = target: T6, MlaA L1 mutant (Y^147VQL→4A)-His (E. coli) (UniProt P76506)
T6 sequence: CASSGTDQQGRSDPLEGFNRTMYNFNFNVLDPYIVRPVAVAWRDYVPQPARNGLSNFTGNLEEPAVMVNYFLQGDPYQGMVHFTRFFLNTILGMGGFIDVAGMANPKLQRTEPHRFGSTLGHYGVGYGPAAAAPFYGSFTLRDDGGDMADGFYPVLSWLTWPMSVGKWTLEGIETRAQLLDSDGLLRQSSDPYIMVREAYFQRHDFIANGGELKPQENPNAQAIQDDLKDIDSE

binding [1]: binds
binding [2]: binds
binding [3]: binds
binding [4]: binds
binding [5]: binds
binding [6]: binds
B1: OmpC (wild type, from the chromosomal locus) (protein, UniProt P06996 22-367)
chain: AEVYNKDGNKLDLYGKVDGLHYFSDNKDVDGDQTYMRLGFKGETQVTDQLTGYGQWEYQIQGNSAENENNSWTRVAFAGLKFQDVGSFDYGRNYGVVYDVTSWTDVLPEFGGDTYGSDNFMQQRGNGFATYRNTDFFGLVDGLNFAVQYQGKNGNPSGEGFTSGVTNNGRDALRQNGDGVGGSITYDYEGFGIGGAISSSKRTDAQNTAAYIGNGDRAETYTGGLKYDANNIYLAAQYTQTYNATRVGSLGWANKAQNFEAVAQYQFDFGLRPSLAYLQSKGKNLGRGYDDEDILKYVDVGATYYFNKNMSTYVDYKINLLDDNQFTRDAGINTDNIVALGLVYQF
